Assay results as given in patent publication US20240125800A1.
These are yes or no findings as the source states them, for the method shown. Some binding calls cover weakened binding; strength is not graded here.

T1: tetraspanin CD63 on exosomes in mouse bronchoalveolar lavage fluid (mouse) (UniProt P41731)
T1 sequence (looked up): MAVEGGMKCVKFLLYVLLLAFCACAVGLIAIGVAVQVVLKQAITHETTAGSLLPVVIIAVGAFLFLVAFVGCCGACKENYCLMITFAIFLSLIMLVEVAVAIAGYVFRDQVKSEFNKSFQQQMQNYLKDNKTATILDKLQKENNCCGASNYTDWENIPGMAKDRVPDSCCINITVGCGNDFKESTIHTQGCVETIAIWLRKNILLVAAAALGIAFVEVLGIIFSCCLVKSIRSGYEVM

T2: tetraspanin CD9 on exosomes in mouse bronchoalveolar lavage fluid (mouse) (UniProt P40240)
T2 sequence (looked up): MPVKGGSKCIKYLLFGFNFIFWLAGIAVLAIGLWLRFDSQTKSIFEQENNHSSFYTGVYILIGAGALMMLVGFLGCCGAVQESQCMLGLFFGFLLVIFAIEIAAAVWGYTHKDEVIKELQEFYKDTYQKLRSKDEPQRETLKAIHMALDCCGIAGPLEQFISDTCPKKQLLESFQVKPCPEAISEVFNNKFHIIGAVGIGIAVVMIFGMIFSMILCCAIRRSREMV


Key:
[1] = target: T1, tetraspanin CD63 on exosomes in mouse bronchoalveolar lavage fluid (mouse); assay: dynamic light scattering, hydrodynamic diameter against time, nanoplatform mixed with exosomes of mouse BALF in HEPES buffer at 298 K
[2] = target: T1, tetraspanin CD63 on exosomes in mouse bronchoalveolar lavage fluid (mouse); assay: electrical impedance spectroscopy, phase angle against frequency, exosomes plus nanoplatform in HEPES buffer
[3] = target: T2, tetraspanin CD9 on exosomes in mouse bronchoalveolar lavage fluid (mouse); assay: dynamic light scattering, hydrodynamic diameter against time, nanoplatform mixed with exosomes of mouse BALF in HEPES buffer at 298 K
[4] = target: T2, tetraspanin CD9 on exosomes in mouse bronchoalveolar lavage fluid (mouse); assay: electrical impedance spectroscopy, phase angle against frequency, exosomes plus nanoplatform in HEPES buffer

Row | Binder | binding [1] | binding [2] | binding [3] | binding [4]
1 | LNNHTASILNRMQANF (bound to Fe/Fe3O4 nanoparticle, 75 +/-5 peptide aptamers per nanoplatform) [Fe/Fe3O4-nanoplatform bearing peptide aptamers for binding of the tetraspanin CD63 (…)] | binds | binds | – | –
2 | VQEFYKDTYNKLKTK (bound to Fe/Fe3O4 nanoparticle, 75 +/-5 peptide aptamers per nanoplatform) [Fe/Fe3O4-nanoplatform bearing peptide aptamers for binding of the tetraspanin CD9 (…)] | – | – | binds | binds
